Reference: the supplement of paper PMC5949888
Most values lie at the floor of the assay. Slopes are relative: functional sequences can read slightly below zero.

These substances were tested on Saccharomyces cerevisiae PS128 hsf1 delta, HSF1(1-493) fusion (assay: growth estimate (transactivation domain function in HSF1 fusion, heat-shock survival) (a.u. (slope of normalised read count over time)); higher = stronger growth at 37°C, i.e. more transactivation activity). Settings: library: random library.
Method: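 Random 60-nt DNA library encoding peptides of up to 20 aa, fused to the C-terminus of yeast HSF1 residues 1-493 (C-terminal TAD deleted) and expressed from the native HSF1 promoter on a CEN plasmid in hsf1-deleted S. cerevisiae PS128. Cells were selected at 37°C on -trp 5-FOA plates for 0, 2, 4, 6 and 8 days and amplicons were sequenced. Growth estimate is the slope of a robust linear fit of total-sum-normalised read counts (normalised to the first time point) over time, using at least 2 replicates. Sequences are classed functional (TAD activity) above a threshold of -0.13, set from stop-codon control sequences.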
YRGRSYVRRSALIRMRLKAP was tested, and the growth estimate was < -0.25.
In the case of YSMQAKTFSCLFTYNG, the growth estimate is reported as < -0.25.
For GQPSNLYGLWRGAPTVTCQL, the growth estimate was < -0.25.
In the case of PSQFAA, the growth estimate is reported as < -0.25.
With GHLLVKFGYCS the growth estimate was < -0.25.
In the case of VSPLGLPRTTWGRVYG, the growth estimate is reported as < -0.25.
In the case of QFV, the growth estimate is reported as < -0.25.
With NTK the growth estimate was < -0.25.
For GAW, the growth estimate was < -0.25.
In the case of PGEACVKSIYTSKGRSMKLT, the growth estimate is reported as < -0.25.
With YDGTQSV the growth estimate was < -0.25.
SPASENRISFLMIDRESPRQ was tested, and the growth estimate was < -0.25.
With VNDVGEVRRRTPIVT the growth estimate was < -0.25.
NRICVRCCFLYRGRTS was tested, and the growth estimate was < -0.25.
With RSSSSC the growth estimate was < -0.25.
With ADGPLFNG the growth estimate was < -0.25.
GSFRVHQ gave a growth estimate of -0.246.
In the case of SRSC, the growth estimate is reported as < -0.25.
For KRLVARPNATLVA, the growth estimate was < -0.25.
With LIRRDRHVDVLSCLQRLVHE the growth estimate was < -0.25.
AENRFGYRFNEVG was tested, and the growth estimate was < -0.25.
For GYGEAWKGRREGARYI, the growth estimate was < -0.25.
LSPTVG was tested, and the growth estimate was < -0.25.
GPTGSDFGSCVWVGYMSLPA was tested, and the growth estimate was < -0.25.
In the case of QSPTVGEGSITIF, the growth estimate is reported as < -0.25.
In the case of RKRGHHLMYSVPPRVLV, the growth estimate is reported as < -0.25.
With GGRSNAHRGPILMH the growth estimate was < -0.25.
In the case of AYGIQLGYNRGQFQSDYSLE, the growth estimate is reported as 9.96.
In the case of TRGHAPGLF, the growth estimate is reported as < -0.25.
For PGGLALRTLVERDCPVTGLM, the growth estimate was < -0.25.
In the case of LNGVGAIQSAQNQARIRHHK, the growth estimate is reported as < -0.25.
In the case of CTGQPNDESKV, the growth estimate is reported as < -0.25.
For NRMHN, the growth estimate was < -0.25.
In the case of RRGKQGTFLPKKMAQPARAA, the growth estimate is reported as < -0.25.
In the case of SHLDVQVGRTLVVPLKLPDQ, the growth estimate is reported as < -0.25.
With LTDLGPSKQEYNRIHGRPVN the growth estimate was < -0.25.
With TQRANVAGSQGLRTRAKGVK the growth estimate was < -0.25.
With DDHKPPGLARSSFSGR the growth estimate was < -0.25.
In the case of PRYNRSCFRSSRVRFRSATS, the growth estimate is reported as < -0.25.
KTTRIKLKQPLP was tested, and the growth estimate was < -0.25.
With GLTLDGFTVSSLKSRSSTS the growth estimate was < -0.25.
In the case of ECIHAV, the growth estimate is reported as < -0.25.
For AAILPRTQYIYHLSGSTGHH, the growth estimate was < -0.25.
In the case of REASMNCSAPPASELNTGLD, the growth estimate is reported as < -0.25.
With RLFACRKYSPMGDHLPITRG the growth estimate was < -0.25.
For WSLVS, the growth estimate was < -0.25.
In the case of AEDH, the growth estimate is reported as < -0.25.
With WCVTNQETGSMAESWRMIYV the growth estimate was < -0.25.
LRLDVMGC was tested, and the growth estimate was < -0.25.
With LDNPTSTQWAFSTDEGVQRW the growth estimate was -0.152.
For VGTRNRTV, the growth estimate was -0.198.
For THGVDEAQGEYIGFVNAPSG, the growth estimate was < -0.25.
TYGGRFSRQQGRDVNGCQDH was tested, and the growth estimate was < -0.25.
For NLGITIGGLPCEHFGS, the growth estimate was < -0.25.
In the case of QPVFQ, the growth estimate is reported as < -0.25.
HDAGLPGIL was tested, and the growth estimate was < -0.25.
For ERSQLLSSIR, the growth estimate was < -0.25.
With ISITLTTHYSSPAAPYALGD the growth estimate was < -0.25.
In the case of EMLTTSCTTRIFPVCSFMRT, the growth estimate is reported as < -0.25.
CSHGLGERAIVPALWQ was tested, and the growth estimate was < -0.25.
For PAPLFHG, the growth estimate was < -0.25.
For GCISVHHRLGLYSNESGLGL, the growth estimate was < -0.25.
In the case of GNVGMEGMMLISGVAQN, the growth estimate is reported as < -0.25.
LKSGQARLSRFSRCIGCPHP was tested, and the growth estimate was < -0.25.
In the case of RWEIAFPETFCGPLMIKAPR, the growth estimate is reported as < -0.25.
With TCPVRLAD the growth estimate was < -0.25.
In the case of GSQADLSL, the growth estimate is reported as < -0.25.
For ESLRSPVYDECEVWTI, the growth estimate was < -0.25.
SVPSKTLVKECSLAQEMIAF was tested, and the growth estimate was < -0.25.
In the case of PEECKGARLSARVKRTPQAV, the growth estimate is reported as < -0.25.
EVRTQFWMLSSVAFRTVRLT was tested, and the growth estimate was < -0.25.
With RVDLQRMVQEAQSPVASVDW the growth estimate was < -0.25.
SIVVENLNEVTTQGGYSRSA was tested, and the growth estimate was < -0.25.
In the case of ADGDSNHTLHTALQYSGGIH, the growth estimate is reported as < -0.25.
For QRTTVGTKVRRTVRARRGLG, the growth estimate was < -0.25.
RVLPVLLLISQGMCT was tested, and the growth estimate was < -0.25.
In the case of VWPCHAGNGCRENCRSGALT, the growth estimate is reported as < -0.25.
In the case of PSGQAN, the growth estimate is reported as < -0.25.
With GILDEALSIRVIRKNPK the growth estimate was < -0.25.
With GEGQFCVSASGVQFFTKVSQ the growth estimate was < -0.25.
NYQVTRLGV was tested, and the growth estimate was < -0.25.
In the case of PLSGKESRDCHLRVWLEGKE, the growth estimate is reported as < -0.25.
In the case of AWDVT, the growth estimate is reported as < -0.25.
VMARFQKRNSGRALPLLSET was tested, and the growth estimate was < -0.25.
In the case of LPNL, the growth estimate is reported as < -0.25.
For GHRGLSRSDRSLMAAKRQRT, the growth estimate was < -0.25.
AFPRT was tested, and the growth estimate was < -0.25.
GGVISIVAYVRFSLAGRPPE was tested, and the growth estimate was < -0.25.
TVALLQGSPSCLR was tested, and the growth estimate was -0.192.
With APHH the growth estimate was < -0.25.
With RFMR the growth estimate was < -0.25.
With DVRITSIGARSQ the growth estimate was < -0.25.
For RSS, the growth estimate was < -0.25.
For ADDAPGGWAT, the growth estimate was < -0.25.
For HTRKSAKLRHARYLPRRKVE, the growth estimate was < -0.25.
With AYSQLGEGTRAINS the growth estimate was < -0.25.
For TLQLGRTPGRCNVLGNCSKI, the growth estimate was < -0.25.
With GLGLTSTETGLAWHERE the growth estimate was < -0.25.
For VNCQGNVLCPVLSNGAAVTG, the growth estimate was < -0.25.
For TLSNNAPKCPDPMASQGCAG, the growth estimate was < -0.25.
For GQLARLRYLCRCTFVGALNR, the growth estimate was < -0.25.
In the case of QSSGAFRVCPRFRGHADSHT, the growth estimate is reported as < -0.25.
With YLYRLIALK the growth estimate was < -0.25.
LTLPGVLLAAVSTGRRRGRA was tested, and the growth estimate was < -0.25.
With ITNAPVIRRPMASIHMSNPR the growth estimate was < -0.25.
For RKNEGIPCSLRHVTRLMGFL, the growth estimate was -0.243.
In the case of GMEHGSLRRFLRLRRISCDV, the growth estimate is reported as < -0.25.
In the case of LGIYASLARSVAVVRPKKRR, the growth estimate is reported as < -0.25.
With RRKVGKDTSQQDADQRPMLA the growth estimate was < -0.25.
For SDPIWLKGISKCPHVGVQGK, the growth estimate was < -0.25.
With AFS the growth estimate was < -0.25.
For LQLGQYLGQG, the growth estimate was < -0.25.
With ILVRGCARIWLSSHRIP the growth estimate was < -0.25.
With ASSQASFGVIWPPAILFEEH the growth estimate was < -0.25.
In the case of PGFG, the growth estimate is reported as -0.246.
With DYAVNPRSRKVGSRR the growth estimate was < -0.25.
With RTSR the growth estimate was < -0.25.
For GSTA, the growth estimate was < -0.25.
IANGAVSTN was tested, and the growth estimate was < -0.25.
VGKGLGNGVGLPWVS was tested, and the growth estimate was < -0.25.
In the case of VNNFQ, the growth estimate is reported as < -0.25.
For ESSRVCTIDLLFETPA, the growth estimate was < -0.25.
In the case of FGLVWCPGKVTSKERVRLFM, the growth estimate is reported as < -0.25.
In the case of RPEDICYVSPLLIWIGSQPA, the growth estimate is reported as < -0.25.
With VLGYRYTSAPIGILIMIDTI the growth estimate was < -0.25.
In the case of AYTDCLPLCRSSTVVNRPNA, the growth estimate is reported as < -0.25.
For LRMRQSLEL, the growth estimate was < -0.25.
With LPHLTRPSPKGGIV the growth estimate was < -0.25.
In the case of LLAGHRVKSHPKSRLLSEGG, the growth estimate is reported as < -0.25.
In the case of QGGDYTAWTFQVQSYQSSRP, the growth estimate is reported as < -0.25.
In the case of PLQILTTQLYSAQFHGLVRN, the growth estimate is reported as < -0.25.
With CGEKIAAFYAVAIRSGPVAN the growth estimate was < -0.25.
With REGDHG the growth estimate was < -0.25.
SGDNLSTGTQESLLDACAK was tested, and the growth estimate was < -0.25.
In the case of HQIQGLHHSYAFTPSLPGAQ, the growth estimate is reported as < -0.25.
For FQSHPVGWVKNEAQVNLTPG, the growth estimate was < -0.25.
SHLGP was tested, and the growth estimate was < -0.25.
LHLGAGSFVLESLT showed a growth estimate of -0.178.
IRGVLSFKSGLWCKRKQFSA was tested, and the growth estimate was < -0.25.
TYEMIRTNIFCIGARRLIHT was tested, and the growth estimate was < -0.25.
ELGAPGPREAVGLGAPRDE showed a growth estimate of -0.237.
ANLALLGEGEIWSIFSWQR gave a growth estimate of -0.0944.
MPHMRALA was tested, and the growth estimate was < -0.25.
With FGSRFSRQEDFIRWCRAVHS the growth estimate was < -0.25.
With YYWRVKRVALLRSPSRGSCA the growth estimate was < -0.25.
For CVEIPFGCTSWVARPRVRNI, the growth estimate was < -0.25.
VSVTVRGHPRL was tested, and the growth estimate was -0.225.
FAQSSLCMTL was tested, and the growth estimate was < -0.25.
In the case of SYKAPHQHSPHSAL, the growth estimate is reported as < -0.25.
In the case of NMSEFRAACGPNPLILSLVA, the growth estimate is reported as < -0.25.
QTIGPPTQKVGGGSYPPVES was tested, and the growth estimate was < -0.25.
